This is one part of the list. The data scatter; read single values as rough.

For one assay, the system named is Plasmodium vivax liver stage (primary human hepatocyte culture). The assay can be described thus: schizont net growth area inhibition (% inhibition); higher = more active against liver schizonts. As to conditions: 10 µM; assay mode: Radical Cure (treated from day 5 post-infection for 3 days), fixed day 8 post-infection.
In the case of `CC1CC(C)CN(C(=O)c2ccc(Cl)cc2Cl)C1` (stereo not given), the “schizont net growth area inhibition” value stood at 22.

With `Clc1ccc2c(N3CCCC3)ccnc2c1`, the “schizont net growth area inhibition” value is -60.7.

Regarding `CCc1ccc(Nc2cc(C)nc3nc(C)nn23)cc1`, the “schizont net growth area inhibition” value was -0.1.

Consider `COc1cc(-c2cc(-c3ccc(S(C)(=O)=O)cc3)cnc2N)ccc1O`, for which the “schizont net growth area inhibition” value was determined as 91.7.

On to `CC[C@H](CO)NCCN[C@H](CC)CO`, for which the “schizont net growth area inhibition” value worked out at 4.6.

As for `O=C(NC1CCN(Cc2ccccc2)CC1)c1cc(C(=O)NC2CCN(Cc3ccccc3)CC2)cc(C(=O)NC2CCN(Cc3ccccc3)CC2)c1`, the “schizont net growth area inhibition” value was found to be 17.9.

Turning to `CCN(CC)CCCNc1ccnc2cc(Cl)ccc12`, the “schizont net growth area inhibition” value worked out at 52.2.

Take `CCN1CCN(c2cc(C)c3cc(NC(=O)c4ccc(OC)c(OC)c4)ccc3n2)CC1`: the “schizont net growth area inhibition” value is -64.

On to `O=C1C2=C(Nc3ccccc3SC2c2ccccc2)c2ccccc21` (stereo not given), for which the “schizont net growth area inhibition” value was -60.5.

Regarding `CC(=O)N(CCN(C(=O)c1ccc(F)cc1)c1ccccc1)c1ccccc1`, the “schizont net growth area inhibition” value is -79.2.

As for `COc1ccc2nc(C)cc(Nc3cccc(O)c3)c2c1`, the “schizont net growth area inhibition” value is 38.9.

Turning to `NCCN(C(=O)c1ccc(Cl)cc1Cl)c1ccc(OCc2ccc(Cl)cc2)cc1`, the “schizont net growth area inhibition” value is -15.2.

With `COc1cc(OC)cc(C(=O)NCC2Cc3cc(Cl)cc(-c4ccncc4)c3O2)c1` (stereo not given), the “schizont net growth area inhibition” value is -30.4.

As to `O=C1c2ccc3c4c(ccc(c24)C(=O)N1CCCCO)C(=O)N(CCCCO)C3=O`, the “schizont net growth area inhibition” value is 85.4.

For `O=C(NC1CC1)c1ccc(N2CCOc3ccc(Cl)cc32)s1`, the “schizont net growth area inhibition” value is -51.

For the compound `CN1CCC(c2cc(-c3ccncc3)c(-c3ccc(F)cc3)[nH]2)CC1`, the “schizont net growth area inhibition” value came to 14.

For `COc1cc(OC)cc(N2C(=O)N(Cc3ccc(C(C)(C)C)cc3)c3ccccc3S2(=O)=O)c1`, the “schizont net growth area inhibition” value is -49.6.

Regarding `O=S(=O)(c1ccc(Cl)cc1)N1CCN(C(=S)NCc2ccco2)CC1`, the “schizont net growth area inhibition” value is -331.

For the compound `Cc1ccc(S(=O)(=O)N2CCN(C(=O)c3cc(-c4ccccc4)[nH]n3)CC2)cc1`, the “schizont net growth area inhibition” value is -137.

For the compound `CCOC(=O)c1noc(N)c1-c1ccccc1`, the “schizont net growth area inhibition” value turned out to be 40.9.

Regarding `Cn1c(=O)c2c(S(C)(=O)=O)snc2n(C)c1=O`, the “schizont net growth area inhibition” value was -1.8.

The next assay has as its system primary human hepatocytes. The assay can be described thus: hepatic nuclei reduction relative to DMSO (100 - % of negative control); higher = more toxic to hepatocytes. To be noted: 10 µM; assay mode: Prophylactic (treated before or shortly after infection), fixed day 6 post-infection.
For the compound `O=C(Nc1ccc(-c2nc3cc(NC(=O)c4ccc(Cl)cc4)ccc3[nH]2)cc1)c1ccc(Cl)cc1`, the hepatic nuclei reduction was determined as 4%.

As to `COc1cccc(NC(=O)Cn2c(C)c(C#N)c3ccccc32)c1`, the hepatic nuclei reduction is -11%.

In the case of `CCCc1c(C)nc2ccc(Br)cc2c1O`, the hepatic nuclei reduction was found to be 3%.

For `O=C(Nc1ccc(F)c(-c2nc3cc(-c4ccccc4)cnc3[nH]2)c1)N1CCCC1`, the hepatic nuclei reduction was -4%.

Consider `O=C(CN1CCOCC1)Nc1ccc2ncnc(Nc3ccc(OCc4cccc(F)c4)c(Cl)c3)c2c1`, for which the hepatic nuclei reduction was -11%.

As to `Cc1ccc2cc(C3NC(=O)c4ccccc4N3)c(Cl)nc2c1` (stereo not given), the hepatic nuclei reduction came to 4%.

Take `CCc1cc(=O)n(C)c(SC(C)C(=O)Nc2ccc(F)cc2)n1` (stereo not given): the hepatic nuclei reduction is -8%.

For the compound `CCCCOC(=O)Nc1cc2nc(C3CCCCC3)[nH]c2cc1N1CCCC1`, the hepatic nuclei reduction is -8%.

With `CC(C)(C)CN1C(=O)C(c2ccccc2)(c2ccccc2)N=C1N`, the hepatic nuclei reduction was 11%.

In the case of `CNC(=O)C1Cc2c([nH]c3cc(Cl)ccc23)C2(CCN(CCc3ccccc3)CC2)N1` (stereo not given), the hepatic nuclei reduction is -9%.

Consider `CCCCOC(=O)c1ccc(Nc2cc(C)nc3ccc(OC)cc23)cc1`, for which the hepatic nuclei reduction was found to be 2%.

As for `COc1cccc(-n2nnnc2S(=O)(=O)Cc2ccccc2)c1`, the hepatic nuclei reduction was -5%.

As to `COc1ccc(-c2cnc3cnc(-c4cccc(OC(C)C)c4)cn23)cc1`, the hepatic nuclei reduction was -5%.

Turning to `Cc1nc(-c2ccccn2)nc(NCCc2ccc(S(C)(=O)=O)cc2)c1Cl`, the hepatic nuclei reduction is -9%.

For `Cc1ccc(Nc2nc(NCCO)c3ccccc3n2)cc1C`, the hepatic nuclei reduction was determined as 1%.

For `CCc1c(C)c(=N)c2ccccc2n1C`, the hepatic nuclei reduction is -2%.

Take `COc1nc(Nc2ccc(C(C)C)cc2)nc(OC)n1`: the hepatic nuclei reduction came out at 4%.

In the case of `C[C@H](C(N)=O)N1CCCC[C@@H]1c1ccc(OCc2cccc(F)c2)cc1`, the hepatic nuclei reduction is -10%.

Turning to `CC1CC(C)CN(C(=O)c2ccc(Cl)cc2Cl)C1` (stereo not given), the hepatic nuclei reduction was -9%.

On to `Clc1ccc2c(N3CCCC3)ccnc2c1`, for which the hepatic nuclei reduction is -1%.

On to `CCc1ccc(Nc2cc(C)nc3nc(C)nn23)cc1`, for which the hepatic nuclei reduction was found to be 3%.

`COc1cc(-c2cc(-c3ccc(S(C)(=O)=O)cc3)cnc2N)ccc1O`: the hepatic nuclei reduction was -7%.

As for `CC[C@H](CO)NCCN[C@H](CC)CO`, the hepatic nuclei reduction was 1%.

Consider `O=C(NC1CCN(Cc2ccccc2)CC1)c1cc(C(=O)NC2CCN(Cc3ccccc3)CC2)cc(C(=O)NC2CCN(Cc3ccccc3)CC2)c1`, for which the hepatic nuclei reduction worked out at 37%.

Consider `CCN(CC)CCCNc1ccnc2cc(Cl)ccc12`, for which the hepatic nuclei reduction came to 3%.

Turning to `CCN1CCN(c2cc(C)c3cc(NC(=O)c4ccc(OC)c(OC)c4)ccc3n2)CC1`, the hepatic nuclei reduction is -3%.

For the compound `O=C1C2=C(Nc3ccccc3SC2c2ccccc2)c2ccccc21` (stereo not given), the hepatic nuclei reduction was 6%.

In the case of `CC(=O)N(CCN(C(=O)c1ccc(F)cc1)c1ccccc1)c1ccccc1`, the hepatic nuclei reduction is -12%.

`COc1ccc2nc(C)cc(Nc3cccc(O)c3)c2c1`: the hepatic nuclei reduction was -4%.

For the compound `NCCN(C(=O)c1ccc(Cl)cc1Cl)c1ccc(OCc2ccc(Cl)cc2)cc1`, the hepatic nuclei reduction stood at 10%.

For the compound `COc1cc(OC)cc(C(=O)NCC2Cc3cc(Cl)cc(-c4ccncc4)c3O2)c1` (stereo not given), the hepatic nuclei reduction stood at 0%.

Turning to `O=C1c2ccc3c4c(ccc(c24)C(=O)N1CCCCO)C(=O)N(CCCCO)C3=O`, the hepatic nuclei reduction amounted to 1%.

For the compound `O=C(NC1CC1)c1ccc(N2CCOc3ccc(Cl)cc32)s1`, the hepatic nuclei reduction was -1%.

Consider `CN1CCC(c2cc(-c3ccncc3)c(-c3ccc(F)cc3)[nH]2)CC1`, for which the hepatic nuclei reduction came to 17%.

On to `COc1cc(OC)cc(N2C(=O)N(Cc3ccc(C(C)(C)C)cc3)c3ccccc3S2(=O)=O)c1`, for which the hepatic nuclei reduction was -1%.

For the compound `O=S(=O)(c1ccc(Cl)cc1)N1CCN(C(=S)NCc2ccco2)CC1`, the hepatic nuclei reduction turned out to be 5%.

As for `Cc1ccc(S(=O)(=O)N2CCN(C(=O)c3cc(-c4ccccc4)[nH]n3)CC2)cc1`, the hepatic nuclei reduction is -6%.

`CCOC(=O)c1noc(N)c1-c1ccccc1`: the hepatic nuclei reduction is -11%.

Turning to `Cn1c(=O)c2c(S(C)(=O)=O)snc2n(C)c1=O`, the hepatic nuclei reduction is -7%.

The values are drawn from the supplement of paper PMC8497498.
